Experimental data as given in publication doi:10.1101/148981.
No constants are given. Whether binding was seen depends on the method and setting. In cells and extracts the contact can be indirect. Some results given as binding are weak or reduced against the parent protein; the word gives no strength. Where a sequence is shown, tags or fusion partners need not be part of it.

Amino acid sequences for entries named in this document (tags omitted).
UniProt Q9UQM7: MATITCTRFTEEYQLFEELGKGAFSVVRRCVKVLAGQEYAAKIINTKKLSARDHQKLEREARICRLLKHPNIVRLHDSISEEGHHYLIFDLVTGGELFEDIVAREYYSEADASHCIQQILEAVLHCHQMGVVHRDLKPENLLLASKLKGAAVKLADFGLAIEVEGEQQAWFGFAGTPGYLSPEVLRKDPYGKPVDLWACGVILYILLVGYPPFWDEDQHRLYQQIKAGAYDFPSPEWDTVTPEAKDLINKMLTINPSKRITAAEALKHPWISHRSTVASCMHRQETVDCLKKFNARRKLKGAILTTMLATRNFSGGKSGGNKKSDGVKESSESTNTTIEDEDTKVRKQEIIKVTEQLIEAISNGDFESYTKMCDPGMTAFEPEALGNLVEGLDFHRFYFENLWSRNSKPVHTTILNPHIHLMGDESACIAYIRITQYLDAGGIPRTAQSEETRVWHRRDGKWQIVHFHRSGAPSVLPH

Target: T1, HA epitope-tagged Rem2 protein (UniProt Q9WTY2)
T1 sequence: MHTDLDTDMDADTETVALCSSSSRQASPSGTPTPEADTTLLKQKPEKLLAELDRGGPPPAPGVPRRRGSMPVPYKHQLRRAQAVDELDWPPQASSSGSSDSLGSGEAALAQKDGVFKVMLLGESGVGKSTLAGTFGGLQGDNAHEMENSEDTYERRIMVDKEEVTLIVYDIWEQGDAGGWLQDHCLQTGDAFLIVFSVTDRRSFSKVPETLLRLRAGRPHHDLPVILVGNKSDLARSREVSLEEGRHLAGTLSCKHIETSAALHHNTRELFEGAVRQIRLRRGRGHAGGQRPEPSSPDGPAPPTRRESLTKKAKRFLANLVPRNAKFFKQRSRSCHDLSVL
Assay: co-IP

myc epitope-tagged CaMKIIα protein (from UniProt Q9UQM7 1-478) (enzyme)
binding: binds
